The experiment in a line: modulators of CD8 T cell-vesicle binding, confirmation, cherry-picked primary hits, two concentrations (AID 2810).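 As to all read-outs here: lower values mean blocking of vesicle binding.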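 As to percent response (vesicle binding): ratio of mean FL2 vesicle stain of CD8+ cells to that row's control.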 Conditions: 2C CD8+ T cell-vesicle binding, flow cytometry; for double positive events: CD8+/vesicle+ events. For orientation: Flow cytometry measures light scatter and fluorescence of single cells or particles in a stream.
Where [1] appears, read: at 15.4 µM, stronger effect = lower value.

The list shows a part of the results. Further columns of the screen follow, without active or inactive calls.

Take `CCOc1cc(C(=O)Nc2ccccc2N2CCOCC2)ccc1OCC(=O)N1CCOCC1`: for the setting “at 7.7 µM”, the double positive events was found to be 33.3% and the percent response (vesicle binding) was 180%. The compound also had a double positive events under setting [1] of 13.4%.

For the setting “at 7.7 µM”, `CCOC(=O)c1[nH]c(C)c(C(=O)N2CCOCC2)c1C` had a double positive events of 12.8% and a percent response (vesicle binding) of 251%. Under setting [1], this compound displayed a double positive events of 18.2%.

Regarding `Cc1ccc(NC(=O)c2ccccc2OCc2c(C)noc2C)cc1S(=O)(=O)N(C)C`, where the note is “at 7.7 µM”, the double positive events was 22.5% and the percent response (vesicle binding) was 269%. Besides, the double positive events under setting [1] was found to be 22.8%.

Under “at 7.7 µM”, `CCc1ccc(C(=O)COC(=O)CNC(=O)Cc2ccccc2)cc1` gave a double positive events of 20.9% and a percent response (vesicle binding) of 191%. In addition, the double positive events under setting [1] came out at 17.3%.

Where the note is “at 7.7 µM”, `Cc1nn(C)c(C)c1NC(=O)COc1ccc(Cl)cc1` yielded a double positive events of 16% and a percent response (vesicle binding) of 193%. Besides, the double positive events under setting [1] is 17.1%.

Where the note is “at 7.7 µM”, `C[C@H](CO)N1C[C@H](C)[C@H](CN(C)S(=O)(=O)c2cn(C)cn2)Oc2ccc(NC(=O)Nc3ccc(C(F)(F)F)cc3)cc2CC1=O` yielded a double positive events of 9.6% and a percent response (vesicle binding) of 312%. Besides, the double positive events under setting [1] worked out at 16%.

As to `O=C(NCc1ccc2c(c1)OCO2)C1CCCN1C(=O)Nc1cccc(Cl)c1` (stereo not drawn), the double positive events by setting is: (at 7.7 µM) 12%; under setting [1], 18.3%. Where the note is “at 7.7 µM”, this compound gave a percent response (vesicle binding) of 190%.

As for `O=C(NN1C(=O)C2C3C=CC(O3)C2C1=O)c1cccc(O)c1` (stereo not drawn), under “at 7.7 µM”, the double positive events worked out at 14.5% and the percent response (vesicle binding) amounted to 263%. This compound also gave a double positive events under setting [1] of 26.8%.

`O=C(c1ccc(COc2ccc(F)cc2)o1)n1cc(Br)cn1`: under “at 7.7 µM”, the double positive events amounted to 26.8% and the percent response (vesicle binding) came out at 154%. Besides, the double positive events under setting [1] amounted to 22.7%.

Take `CCOC(=O)Cc1csc(NC(=O)CSc2nnc(C(C)C)n2CC)n1`: under “at 7.7 µM”, the double positive events is 20.5% and the percent response (vesicle binding) stood at 162%. Under setting [1], the double positive events came to 14.3%.

For `CN(Cc1ccc(Cl)cc1)C(=O)COC(=O)CSc1ccc([N+](=O)[O-])cc1`, where the note is “at 7.7 µM”, the double positive events amounted to 6.9% and the percent response (vesicle binding) is 214%. Further, the double positive events under setting [1] stood at 10.7%.

Where the note is “at 7.7 µM”, `Cn1c2ccccc2c2cc(/C=C(\NC(=O)c3ccccc3)C(=O)NCC(=O)O)ccc21` had a double positive events of 16.5% and a percent response (vesicle binding) of 306%. Under setting [1], this compound registered a double positive events of 31.2%.

Under “at 7.7 µM”, `O=C(NC(Cc1ccccc1)C(=O)O)/C(=C\c1ccco1)NC(=O)c1ccccc1Br` (stereo not drawn) showed a double positive events of 8.2% and a percent response (vesicle binding) of 161%. In addition, the double positive events under setting [1] worked out at 6.9%.

Regarding `CC(NC(=O)CN(C)S(=O)(=O)c1ccc(F)cc1)C1CC2CCC1C2` (stereo not drawn), the double positive events amounted to 12.1% (at 7.7 µM) and 28.6% under setting [1]. The same compound showed a percent response (vesicle binding) (at 7.7 µM) of 139%.

Consider `COc1ccc(NC(=O)CSCC(=O)Nc2cccc(S(=O)(=O)N3CCCCCC3)c2)cc1`, for which, where the note is “at 7.7 µM”, the double positive events was 11.1% and the percent response (vesicle binding) was found to be 179%. In addition, under setting [1], the double positive events was found to be 19.3%.

As for `C=CCn1c(NCCOC)nc2c1c(=O)n(C)c(=O)n2C`, under “at 7.7 µM”, the double positive events turned out to be 14.9% and the percent response (vesicle binding) was found to be 204%. Under setting [1], this compound gave a double positive events of 26.1%.

As to `COc1ccc(C2(C(=O)Nc3ccc(OC)cc3OC)CCCC2)cc1`, for the setting “at 7.7 µM”, the double positive events came to 15.5% and the percent response (vesicle binding) was 457%. The same compound had a double positive events under setting [1] of 15.2%.

Take `COC(=O)c1ccc(N2CCOCC2)c(NC(=O)c2ccco2)c1`: the double positive events by setting is: (at 7.7 µM) 19.1%; under setting [1], 10.6%. For the setting “at 7.7 µM”, this compound yielded a percent response (vesicle binding) of 237%.

In the case of `C=CCc1ccc(OCCOCCOc2cccc3cccnc23)c(OC)c1`, the double positive events runs as follows: (at 7.7 µM) 12.6%; under setting [1], 16.8%. In addition, the percent response (vesicle binding) (at 7.7 µM) turned out to be 156%.

For the compound `O=C(c1cc(Cl)ccc1Cl)N1CCN(c2ccccn2)CC1`, for the setting “at 7.7 µM”, the double positive events worked out at 7.4% and the percent response (vesicle binding) is 228%. Also, the double positive events under setting [1] amounted to 38.6%.

`O=C(CN1CCN(C2CCCCC2)CC1)Nc1ccccc1N1CCCCC1`: where the note is “at 7.7 µM”, the double positive events was 7.6% and the percent response (vesicle binding) is 188%. This compound came in with a double positive events under setting [1] of 21.9%.

As to `COc1cc(C(=O)Nc2nnc(-c3sccc3C)s2)cc(OC)c1OC`, the double positive events by setting is: (at 7.7 µM) 15.2%; under setting [1], 11.1%. The compound further registered a percent response (vesicle binding) (at 7.7 µM) of 576%.

Consider `Cc1nc(SCC(=O)N2CCNC2=O)c2ccccc2n1`, for which, under “at 7.7 µM”, the double positive events stood at 17.9% and the percent response (vesicle binding) turned out to be 667%. Moreover, the double positive events under setting [1] was 10.6%.

For the compound `CCOc1ccc(Cl)cc1/C=N/NC(=O)c1ccccc1`, the double positive events worked out at 24.1% (at 7.7 µM) and 30.4% under setting [1]. The same compound displayed a percent response (vesicle binding) (at 7.7 µM) of 335%.

Under “at 7.7 µM”, `Cc1[nH]c2ccc(F)cc2c(=O)c1SC(F)(F)C(F)C(F)(F)F` (stereo not drawn) gave a double positive events of 10.7% and a percent response (vesicle binding) of 266%. Also, the double positive events under setting [1] came out at 28.5%.

`CCCCN(C)CCCNC(=O)Cn1c(=O)sc2ccccc21`: the double positive events is, setting by setting: (at 7.7 µM) 16.5%; under setting [1], 10.6%. Also, the percent response (vesicle binding) (at 7.7 µM) is 215%.

In the case of `CSc1ccccc1NC(=O)CSc1cccc[n+]1[O-]`, under “at 7.7 µM”, the double positive events amounted to 15.1% and the percent response (vesicle binding) is 198%. Under setting [1], this compound displayed a double positive events of 35.6%.

In the case of `COC(=O)c1ccc2c(=O)[nH]c(CSc3nc(-c4ccc(F)cc4)cs3)nc2c1`, under “at 7.7 µM”, the double positive events turned out to be 11.9% and the percent response (vesicle binding) is 189%. Also, the double positive events under setting [1] was found to be 29.3%.

Where the note is “at 7.7 µM”, `Cc1cc(C(=O)Nc2ccc(Br)cn2)sc1C` yielded a double positive events of 13.8% and a percent response (vesicle binding) of 401%. Moreover, the double positive events under setting [1] worked out at 16.5%.

Under “at 7.7 µM”, `COCCn1c(C)cc(C(=O)CN2C(=O)NC3(CCCCCCC3)C2=O)c1C` yielded a double positive events of 13.7% and a percent response (vesicle binding) of 230%. This compound showed a double positive events under setting [1] of 14.2%.

In the case of `COc1ccc(C2=NS(=O)(=O)N(C)C(C(=O)N(C)Cc3ccccc3)=C2)cc1OC`, the double positive events runs as follows: (at 7.7 µM) 8.8%; under setting [1], 19.1%. Where the note is “at 7.7 µM”, this compound displayed a percent response (vesicle binding) of 170%.

For the setting “at 7.7 µM”, `COc1cccc(CN2CCN(S(=O)(=O)c3ccc(Cl)s3)CC2)c1` showed a double positive events of 11.2% and a percent response (vesicle binding) of 192%. The compound also yielded a double positive events under setting [1] of 32.2%.

For the setting “at 7.7 µM”, `COc1ccc(CNC(=O)c2nnn(Cc3ccc(OC)cc3)c2N)cc1` returned a double positive events of 35.5% and a percent response (vesicle binding) of 128%. The compound also yielded a double positive events under setting [1] of 13%.

In the case of `CCc1ccc(S(=O)(=O)NCc2cccs2)cc1`, under “at 7.7 µM”, the double positive events was found to be 33.6% and the percent response (vesicle binding) was 293%. Under setting [1], this compound came in with a double positive events of 23.1%.

`CN(C(=O)COc1ccc(Oc2ccccc2)cc1)C1CCS(=O)(=O)C1` (stereo not drawn): under “at 7.7 µM”, the double positive events turned out to be 9.1% and the percent response (vesicle binding) came out at 247%. This compound also came in with a double positive events under setting [1] of 26.8%.

In the case of `COc1cc(/C=N/NC(=O)c2ccc(NS(=O)(=O)c3cccs3)cc2)cc(OC)c1O`, where the note is “at 7.7 µM”, the double positive events was found to be 12.7% and the percent response (vesicle binding) amounted to 422%. Moreover, the double positive events under setting [1] came to 10.2%.

Consider `O=C(COC(=O)c1ccc(S(=O)(=O)N2CCOCC2)cc1)Nc1ccccc1OC(F)F`, for which, under “at 7.7 µM”, the double positive events is 12.3% and the percent response (vesicle binding) was found to be 138%. This compound returned a double positive events under setting [1] of 12.5%.

With `Cc1ccc(NC(=O)CN2CCCC2c2cccs2)cc1S(=O)(=O)N1CCCCC1` (stereo not drawn), the double positive events was 8.1% (at 7.7 µM) and 23.1% under setting [1]. The same compound had a percent response (vesicle binding) (at 7.7 µM) of 226%.

Under “at 7.7 µM”, `CN1CCN(S(=O)(=O)c2ccc3[nH]c(=O)oc3c2)CC1` registered a double positive events of 9.7% and a percent response (vesicle binding) of 151%. This compound also came in with a double positive events under setting [1] of 11.1%.

For the setting “at 7.7 µM”, `CC(C)NC(=O)NC(=O)CSc1nnc(COc2ccccc2F)n1C(C)C1CC2CCC1C2` (stereo not drawn) came in with a double positive events of 18.6% and a percent response (vesicle binding) of 263%. This compound yielded a double positive events under setting [1] of 15.1%.

`C[C@H](CO)N1C[C@H](C)[C@@H](CN(C)C(=O)Nc2ccccc2)Oc2ccc(NC(=O)c3ccncc3)cc2C1=O`: the double positive events is 12.2% (at 7.7 µM) and 16.8% under setting [1]. The percent response (vesicle binding) (at 7.7 µM) was found to be 453%.

For the origin of these results see PubChem BioAssay AID2810 (NMMLSC, 2010).
